PubChem BioAssay AID1259405 | NCATS, 2018
This is one part, drawn at random, of about 50,000 reagents. Of all reagents, about 4,000 (8%) were called active. 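Mouse siRNA library applied to hamster cells; one well for each siRNA.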 A number with no mark means an inactive call. The numbers tell different reagents against one gene apart.

- Test: 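Knock-downs that lift recombinant protein yield in hamster ovary cells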 (primary screen)
- System: Chinese hamster CHO-K1 ovary cells with stable secreted eGFP expression
- Reagent: single siRNA against mouse genes, 0.8 pmol siRNA per well (2 µl of 400 nM stock)
- Timing: 3 days
- Detection: 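Percent of the per-plate non-targeting control median for intracellular GFP per well by laser scanning cytometry and for cell viability by ATP luminescence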
- Reading the numbers: GFP, % of control: higher = more GFP per well, higher productivity; viability (ATP), % of control: higher = more viable cells (more ATP)
- Active means: 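a knock-down is called active if GFP reaches 120% or more of non-targeting control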

The opening 3 records, to show the layout:
gene	reagent no.	GFP, % of control	viability (ATP), % of control
Rab19	1	59.7	37.6
Rab19	2	37	45.4
Rab19	3	66.7	69.4

The listing, from the first entry:
gene	reagent no.	GFP, % of control	viability (ATP), % of control
Rab19	1	59.7	37.6
Rab19	2	37	45.4
Rab19	3	66.7	69.4
Slc30a9	1	66.3	68.3
Slc30a9	2	99.1	58.7
Slc30a9	3	56.8	86.7
Chic2	1	94.4	85.6
Chic2	2	40	76.1
Chic2	3	96.1	107
Slc7a6os	1	74.1	55.7
Slc7a6os	2	107	78.7
Slc7a6os	3	81.2	82.8
Plcd1	1	84	92.9
Plcd1	2	108	95.3
Plcd1	3	83	74.7
Tpk1	1	104	73.4
Tpk1	2	60	52.8
Tpk1	3	77.8	74.5
Dmac2	1	160 (active)	70.7
Dmac2	2	53.7	31.1
Dmac2	3	114	67.5
Il13ra2	1	72.3	52.5
Il13ra2	2	110	66.1
Il13ra2	3	92.7	84.8
Spib	1	70	71.2
Spib	2	55.5	54.6
Spib	3	101	39
Htr3a	1	82.1	70.1
Htr3a	2	82.6	47.6
Htr3a	3	136 (active)	71
Or5t9	1	91	82.3
Or5t9	2	76.2	65.1
Or5t9	3	78.8	50.6
Or2r2	1	79.8	66.2
Or2r2	2	79.6	85
Or2r2	3	69.9	63.8
